# Reference: PubChem BioAssay (EPA / NIEHS)
# What follows is the remainder of the data, with few or none of the hits. Inconclusive results are not listed. Activity calls are given as the source filed them. Rule for the calls: active = hit-call score of the fitted dose curve at least 0.9, where 1 is the maximum; inconclusive = response in the unintended direction; inactive = score below 0.9.
# Molecular target: Nuclear receptor subfamily 1 group I member 2 (Mus musculus) (UniProt O54915)
# Assay: ATG_mPXR_XSP2: Attagene TRANS-FACTORIAL Multi-Species (XSP1) HepG2 Assay for mouse Pregnane X Receptor (PXR) (AID 2283831)
# Summary of the method: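 Transient HepG2 transfection, multiplexed GAL4-UAS reporters, NR-GAL4 chimeras. 24 h compound exposure. Readout: reporter mRNA, RT-PCR, fluorescent capillary electrophoresis; positive direction vs DMSO baseline.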
smiles,measurement,value
CC(C)(C)c1ccc(O)cc1,outcome,inactive
